# Data reported in the supplement of paper PMC9135407.
# Several values for one entry are separate records, joined by “and”; a condition that tells them apart may be missing. Equal entries are not always repeated. Structures can show the parent of a compound that is named as a salt. ± gives the standard deviation of the averaged measurements. Some of the results follow. Plates or batches differ in their baseline, so values are only roughly comparable.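 Assay uses culture-activated primary human stellate myofibroblasts; lipid droplet recovery indicates inactivation. Measured: proportion of Hoechst-counted cells over a plate-specific Bodipy cutoff, duplicate wells, DMSO and nortriptyline as per-plate negative and positive controls. A hit scores, control-normalized, above the plate's top-tenth-percentile nortriptyline wells or ranks among its three best wells. Final well concentrations not reported.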
# System: primary human hepatic stellate cells (donor 1)
# Assay: percent Bodipy-positive cells; higher = more lipid droplet accumulation
# Settings: 48 h
# [1] = library stock concentration: 10 mM
# [2] = library stock concentration: 80 uM
# [3] = library stock concentration: 400 uM
# [4] = library stock concentration: 3.33 mM
# [5] = library stock concentration: 1 mM
compound,measurement,setting,value
O=S(=O)(O)c1cc(I)c(O)c2ncccc12,percent Bodipy-positive cells,[1],25.7 ± 6.5%
c1cc(-c2cnn3cc(-c4ccc(OCCN5CCCCC5)cc4)cnc23)ccn1 [Dorsomorphin],percent Bodipy-positive cells,[2],12.6 ± 6.8%
same,percent Bodipy-positive cells,[3],21.7 ± 8%
same,percent Bodipy-positive cells,library stock concentration: 2 mM,42.5 ± 1.8%
same,percent Bodipy-positive cells,[1],77.4 ± 4.5%
"c1cc(-c2cnn3cc(-c4ccc(OCCN5CCCCC5)cc4)cnc23)ccn1 [AMPK Inhibitor, Compound C]",percent Bodipy-positive cells,[4],16.2 ± 6.5%
c1cc2c3c(c1)c1c(n3CCNC2)CCCC1 [WAY 629 hydrochloride],percent Bodipy-positive cells,[1],25.7 ± 4.6%
CCCCCCCCCCCCCCCCOC[C@@H](O)COP(=O)(O)O [1-Hexadecyl Lysophosphatidic Acid],percent Bodipy-positive cells,[5],8.86 ± 2.2%
O=C1[C@H](CC[C@H](O)c2ccc(F)cc2)[C@@H](c2ccc(O)cc2)N1c1ccc(F)cc1,percent Bodipy-positive cells,[1],14 ± 3.1%
O=C1[C@H](CC[C@H](O)c2ccc(F)cc2)[C@@H](c2ccc(O)cc2)N1c1ccc(F)cc1 [Ezetimibe],percent Bodipy-positive cells,[4],16.8 ± 0.8%
same,percent Bodipy-positive cells,library stock concentration: 4.9 mM,10.1 ± 4.1%
same,percent Bodipy-positive cells,[1],15.1% and 36.9%
CC1COCCN1c1cc(C2(S(C)(=O)=O)CC2)nc(-c2cccc3[nH]ccc23)n1 (configuration not stated),percent Bodipy-positive cells,[4],3.47 ± 0.061%
same,percent Bodipy-positive cells,[1],33.8 ± 8.5%
Cn1cc(C2=C(c3cn(CCCN)c4ccccc34)C(=O)NC2=O)c2ccccc21 [Bisindolylmaleimide VIII (acetate)],percent Bodipy-positive cells,[5],14.7 ± 1.7%
CCN1C(=CC(C)=O)Sc2ccc(OC)cc21,percent Bodipy-positive cells,[4],26 ± 2.5%
same,percent Bodipy-positive cells,[1],36.3 ± 11%
COC(=O)CC(NC(=O)C(C)NC(=O)C(NC(=O)OCc1ccccc1)C(C)C)C(=O)CF (configuration not stated),percent Bodipy-positive cells,[4],11.51 ± 0.085%
same,percent Bodipy-positive cells,[1],43.3 ± 0.047%
Cc1cc(-c2ncc(CC(=O)Nc3ccc(-c4cnccn4)cn3)cc2C)ccn1,percent Bodipy-positive cells,[4],36.3 ± 7.3%
same,percent Bodipy-positive cells,[1],44.7 ± 1.4%
O=C(O)COCCN1CCN([C@H](c2ccccc2)c2ccc(Cl)cc2)CC1,percent Bodipy-positive cells,[1],11.1% and 32.5%
Cc1cnc(C(=O)NCCc2ccc(S(=O)(=O)NC(=O)NC3CCCCC3)cc2)cn1 [Glipizide],percent Bodipy-positive cells,,50.9 ± 20%
same,percent Bodipy-positive cells,[4],9.98 ± 1.2%
same,percent Bodipy-positive cells,library stock concentration: 4.5 mM,8.06% and 21.7%
Cc1cnc(C(=O)NCCc2ccc(S(=O)(=O)NC(=O)NC3CCCCC3)cc2)cn1,percent Bodipy-positive cells,[1],25.2 ± 2.7%
CN(C)[C@@H]1CCc2[nH]c3ccc(NC(=O)c4ccc(F)cc4)cc3c2C1.Cl,percent Bodipy-positive cells,[1],85.7 ± 2.5%
CCc1ccc2c(O)c3c(cc2c1C(=O)OC)C(=O)c1c(O)ccc(O)c1C3=O [Bisanhydrorutilantinone],percent Bodipy-positive cells,[1],36.8 ± 1.8%
O=C(Cc1ccccc1)Nc1nc2ccc(Cl)cc2c2nc(-c3ccco3)nn12,percent Bodipy-positive cells,[1],42.4 ± 8.1%
CC(C)NC[C@H](O)COc1cccc2[nH]ccc12 [(S)-(-)-Pindolol],percent Bodipy-positive cells,[1],10.4 ± 1%
CC(C)NC[C@H](O)COc1cccc2[nH]ccc12 [S(-)-Pindolol],percent Bodipy-positive cells,[1],36.6 ± 13%
NC(=O)Nc1sc(-c2ccccc2)cc1C(N)=O [IKK-2 Inhibitor VI],percent Bodipy-positive cells,[4],12.8 ± 2.1%
CN1CCC(NC(=O)c2cc(-c3c(O)cc(O)cc3Oc3ccc([N+](=O)[O-])cc3)on2)CC1,percent Bodipy-positive cells,[4],86.5 ± 1.6%
CC(O)(P(=O)(O)O)P(=O)(O)O [Etidronate disodium],percent Bodipy-positive cells,library stock concentration: 8 mM,7.41 ± 3.6%
"CC(O)(P(=O)(O)O)P(=O)(O)O [Etidronic acid, disodium salt]",percent Bodipy-positive cells,,6.29 ± 5%
COc1ccccc1N1CCN(CCCCNC(=O)c2ccc3ccccc3c2)CC1,percent Bodipy-positive cells,,57.6 ± 1.3%
NC(=O)c1ccc[n+]([C@@H]2O[C@H](COP(=O)([O-])OP(=O)(O)OC[C@H]3O[C@@H](n4cnc5c(N)ncnc54)[C@H](OP(=O)(O)O)[C@@H]3O)[C@@H](O)[C@H]2O)c1 [Sodium beta-nicotinamide adenine dinucleotide phosphate],percent Bodipy-positive cells,[1],38.5 ± 3.7%
CCC1NC(=O)c2cc(S(N)(=O)=O)c(Cl)cc2N1 (configuration not stated) [Quinethazone],percent Bodipy-positive cells,,5.5 ± 1.3%
Nc1ncnc2c1C(=O)N(c1ccc([C@H]3CC[C@H](CC(=O)O)CC3)cc1)CCO2,percent Bodipy-positive cells,[4],23.3 ± 5%
same,percent Bodipy-positive cells,[1],43.37 ± 0.24%
Cc1ccc2c(=O)c3ccccc3n(CCCN)c2c1C,percent Bodipy-positive cells,[1],54.4 ± 0.78%
Nc1ncnc2c1c(-c1cccc(OCc3ccccc3)c1)cn2[C@H]1C[C@H](CN2CCCC2)C1,percent Bodipy-positive cells,[4],83 ± 2.6%
COc1ccc(CN2CCN(C(c3ccc(F)cc3)c3ccc(F)cc3)CC2)c(OC)c1OC [Lomerizine HCl],percent Bodipy-positive cells,[4],26.6 ± 1.5%
same,percent Bodipy-positive cells,[1],66.2 ± 11%
CC(C)Cc1ccc(C(C)C(=O)O)cc1 (configuration not stated) [Ibuprofen],percent Bodipy-positive cells,[4],8.22 ± 3.7%
same,percent Bodipy-positive cells,library stock concentration: 9.7 mM,6.04% and 3.84%
same,percent Bodipy-positive cells,[1],10.4% and 17.9%
CC(C)Cc1ccc(C(C)C(=O)O)cc1 (configuration not stated) [(?)-Ibuprofen],percent Bodipy-positive cells,[5],6.03 ± 0.69%
same,percent Bodipy-positive cells,[1],44.6 ± 7.8%
CC(C)Cc1ccc(C(C)C(=O)O)cc1 (configuration not stated),percent Bodipy-positive cells,[1],26.3 ± 5%
"COC1=CC(=O)C=C(OC)C1=O [2,6-dimethoxyquinone]",percent Bodipy-positive cells,[1],98.28 ± 0.93%
OCc1ccccn1,percent Bodipy-positive cells,[1],32.1 ± 10%
CN(C(=O)c1c(O)c2ccccc2n(C)c1=O)c1ccccc1 [Linomide],percent Bodipy-positive cells,[1],4.83 ± 0.86%
CCCCC[C@H](O)/C=C/[C@@H]1[C@H](CCCCCCC(=O)O)[C@@H](O)C[C@H]1O [8-iso Prostaglandin F1.alpha.],percent Bodipy-positive cells,[5],13.9 ± 2.5%
Nc1nc2[nH]cc(CCc3ccc(C(=O)N[C@@H](CCC(=O)O)C(=O)O)cc3)c2c(=O)[nH]1,percent Bodipy-positive cells,[1],44.1 ± 7.9%
CCCCCCCCCCCCCCCCOCC(COP(=O)([O-])OCC[N+](C)(C)C)OC (configuration not stated) [1-Hexadecyl-2-methylglycero-3 PC],percent Bodipy-positive cells,[5],6.87 ± 0.97%
CCN1CCN(Cc2ccc(Nc3ncc(F)c(-c4cc(F)c5nc(C)n(C(C)C)c5c4)n3)nc2)CC1 [Abemaciclib],percent Bodipy-positive cells,[2],32 ± 8.8%
same,percent Bodipy-positive cells,[3],41.6 ± 6.6%
same,percent Bodipy-positive cells,[1],98.983 ± 0.066%
COCCc1ccc(OCC(O)CNC(C)C)cc1 (stereo not drawn) [(?)-Metoprolol (+)-tartrate],percent Bodipy-positive cells,[1],48.4 ± 16%
COCCc1ccc(OCC(O)CNC(C)C)cc1 (configuration not stated) [Metoprolol Tartrate],percent Bodipy-positive cells,[4],5.54 ± 0.95%
same,percent Bodipy-positive cells,[1],27.6 ± 6.2%
COCCc1ccc(OCC(O)CNC(C)C)cc1 (configuration not stated) [Metoprolol tartrate],percent Bodipy-positive cells,library stock concentration: 4.8 mM,3.37 ± 0.33%
same,percent Bodipy-positive cells,library stock concentration: 7.5 mM,12.5 ± 1.3%
same,percent Bodipy-positive cells,[1],12.9 ± 0.59%
COc1ccc(C(=O)c2ccccc2O)c(O)c1 [Dioxybenzone],percent Bodipy-positive cells,,16.4 ± 9.3%
same,percent Bodipy-positive cells,[1],21.4 ± 0.52%
CCCCC[C@H](O)/C=C/[C@@H]1[C@@H](C/C=C\CCCC(=O)NCCO)[C@@H](O)C[C@@H]1O [11.beta.-Prostaglandin F2.alpha. Ethanolamide],percent Bodipy-positive cells,[5],18.1 ± 6.3%
CC(C)(C)NC[C@H](O)COc1ccccc1C1CCCC1 [Penbutolol sulfate],percent Bodipy-positive cells,,51.2 ± 1.9%
O=C(O)c1cc(I)ccc1NC(=O)[C@H](Cc1ccccc1)NCc1ccccc1,percent Bodipy-positive cells,[4],26 ± 3.8%
same,percent Bodipy-positive cells,[1],27.5 ± 9.7%
"N[C@H](C(=O)O)[C@H]1C[C@@H]1C(=O)O [(2S,1'S,2'S)-2-(carboxycyclopropyl)glycine]",percent Bodipy-positive cells,[1],28.1 ± 1.7%

# Seven records picked at random from those above:
compound,measurement,setting,value
O=C(O)COCCN1CCN([C@H](c2ccccc2)c2ccc(Cl)cc2)CC1,percent Bodipy-positive cells,[1],11.1% and 32.5%
COc1ccc(C(=O)c2ccccc2O)c(O)c1 [Dioxybenzone],percent Bodipy-positive cells,[1],21.4 ± 0.52%
CN(C(=O)c1c(O)c2ccccc2n(C)c1=O)c1ccccc1 [Linomide],percent Bodipy-positive cells,[1],4.83 ± 0.86%
CN1CCC(NC(=O)c2cc(-c3c(O)cc(O)cc3Oc3ccc([N+](=O)[O-])cc3)on2)CC1,percent Bodipy-positive cells,[4],86.5 ± 1.6%
CCN1CCN(Cc2ccc(Nc3ncc(F)c(-c4cc(F)c5nc(C)n(C(C)C)c5c4)n3)nc2)CC1 [Abemaciclib],percent Bodipy-positive cells,[1],98.983 ± 0.066%
CC(O)(P(=O)(O)O)P(=O)(O)O [Etidronate disodium],percent Bodipy-positive cells,library stock concentration: 8 mM,7.41 ± 3.6%
CC1COCCN1c1cc(C2(S(C)(=O)=O)CC2)nc(-c2cccc3[nH]ccc23)n1 (configuration not stated),percent Bodipy-positive cells,[4],3.47 ± 0.061%
